{
  "source": "patent US20130005747A1",
  "about": "“METHOD FOR SELECTING A CANCER THERAPY” (Cyclacel Limited, priority 2010, published 2013)",
  "key": {"HT-29 [1]": {"test_system": "HT-29", "assay": "Cell line IC50 (Table 3)", "assay_type": "cell-based", "conditions": "Homo sapiens"}, "MCF7": {"test_system": "MCF7", "assay": "Cell line IC50 (Table 3)", "assay_type": "cell-based", "conditions": "Homo sapiens"}, "H292": {"test_system": "H292", "assay": "Cell line IC50 (Table 3)", "assay_type": "cell-based", "conditions": "Homo sapiens, NCI-H292"}, "HCC-827": {"test_system": "HCC-827", "assay": "Fractional growth, 72 h seliciclib", "assay_type": "cell-based, human", "conditions": "HCC-827 (Lung: NSCLC), 15 μM seliciclib", "description": "(§1) A total of 270 human cancer cell lines from diverse cancer histopathologic types were investigated."}, "ACHN": {"test_system": "ACHN", "assay": "Fractional growth, 72 h seliciclib", "assay_type": "cell-based, human", "conditions": "ACHN (Kidney), 15 μM seliciclib", "description": "as §1"}, "H2869": {"test_system": "H2869", "assay": "Fractional growth, 72 h seliciclib", "assay_type": "cell-based, human", "conditions": "H2869 (Lung), 15 μM seliciclib", "description": "as §1"}, "J82": {"test_system": "J82", "assay": "Fractional growth, 72 h seliciclib", "assay_type": "cell-based, human", "conditions": "J82 (Bladder), 15 μM seliciclib", "description": "as §1"}, "Panc 10.05": {"test_system": "Panc 10.05", "assay": "Fractional growth, 72 h seliciclib", "assay_type": "cell-based, human", "conditions": "Panc 10.05 (Pancreas), 15 μM seliciclib", "description": "as §1"}, "MDA-H2774": {"test_system": "MDA-H2774", "assay": "Fractional growth, 72 h seliciclib", "assay_type": "cell-based, human", "conditions": "MDA-H2774 (Ovary), 15 μM seliciclib", "description": "as §1"}, "LCLC-97TM1": {"test_system": "LCLC-97TM1", "assay": "Fractional growth, 72 h seliciclib", "assay_type": "cell-based, human", "conditions": "LCLC-97TM1 (Lung: NSCLC), 15 μM seliciclib", "description": "as §1"}, "FTC-133": {"test_system": "FTC-133", "assay": "Fractional growth, 72 h seliciclib", "assay_type": "cell-based, human", "conditions": "FTC-133 (Thyroid), 15 μM seliciclib", "description": "as §1"}, "NCI-H1703": {"test_system": "NCI-H1703", "assay": "Fractional growth, 72 h seliciclib", "assay_type": "cell-based, human", "conditions": "NCI-H1703 (Lung: NSCLC), 15 μM seliciclib", "description": "as §1"}, "UMC-11": {"test_system": "UMC-11", "assay": "Fractional growth, 72 h seliciclib", "assay_type": "cell-based, human", "conditions": "UMC-11 (Lung), 15 μM seliciclib", "description": "as §1"}, "HT-1197": {"test_system": "HT-1197", "assay": "Fractional growth, 72 h seliciclib", "assay_type": "cell-based, human", "conditions": "HT-1197 (Bladder), 15 μM seliciclib", "description": "as §1"}, "S-117": {"test_system": "S-117", "assay": "Fractional growth, 72 h seliciclib", "assay_type": "cell-based, human", "conditions": "S-117 (Thyroid), 15 μM seliciclib", "description": "as §1"}, "HT-29 [2]": {"test_system": "HT-29", "assay": "Fractional growth, 72 h seliciclib", "assay_type": "cell-based, human", "conditions": "HT-29 (Intestine), 15 μM seliciclib", "description": "as §1"}, "SW-1710": {"test_system": "SW-1710", "assay": "Fractional growth, 72 h seliciclib", "assay_type": "cell-based, human", "conditions": "SW-1710 (Bladder), 15 μM seliciclib", "description": "as §1"}, "COLO 853": {"test_system": "COLO 853", "assay": "Fractional growth, 72 h seliciclib", "assay_type": "cell-based, human", "conditions": "COLO 853 (Skin), 15 μM seliciclib", "description": "as §1"}, "MESSA": {"test_system": "MESSA", "assay": "Cell line IC50 (Table 3)", "assay_type": "cell-based", "conditions": "Homo sapiens, MES-SA"}, "H358": {"test_system": "H358", "assay": "Cell line IC50 (Table 3)", "assay_type": "cell-based", "conditions": "Homo sapiens, NCI-H358"}, "A2780": {"test_system": "A2780", "assay": "Cell line IC50 (Table 3)", "assay_type": "cell-based", "conditions": "Homo sapiens"}, "A549": {"test_system": "A549", "assay": "Cell line IC50 (Table 3)", "assay_type": "cell-based", "conditions": "Homo sapiens"}, "Saos-2": {"test_system": "Saos-2", "assay": "Cell line IC50 (Table 3)", "assay_type": "cell-based", "conditions": "Homo sapiens"}, "cell lines of Table 3": {"test_system": "cell lines of Table 3", "assay": "Cell line panel of Table 3, summary over cell lines", "assay_type": "cell-based", "conditions": "Homo sapiens, read-out: Median IC50"}, "LP-1": {"test_system": "LP-1", "assay": "Cell line IC50 (Table 3)", "assay_type": "cell-based", "conditions": "Homo sapiens"}, "NCI-H460": {"test_system": "NCI-H460", "assay": "Cell line IC50 (Table 3)", "assay_type": "cell-based", "conditions": "Homo sapiens"}, "HCT 116": {"test_system": "HCT 116", "assay": "Cell line IC50 (Table 3)", "assay_type": "cell-based", "conditions": "Homo sapiens"}, "H1650": {"test_system": "H1650", "assay": "Cell line IC50 (Table 3)", "assay_type": "cell-based", "conditions": "Homo sapiens, NCI-H1650"}, "LoVo": {"test_system": "LoVo", "assay": "Cell line IC50 (Table 3)", "assay_type": "cell-based", "conditions": "Homo sapiens"}, "Colo205": {"test_system": "Colo205", "assay": "Cell line IC50 (Table 3)", "assay_type": "cell-based", "conditions": "Homo sapiens, COLO 205"}, "NCI-H929": {"test_system": "NCI-H929", "assay": "Cell line IC50 (Table 3)", "assay_type": "cell-based", "conditions": "Homo sapiens"}, "H2052": {"test_system": "H2052", "assay": "Cell line IC50 (Table 3)", "assay_type": "cell-based", "conditions": "Homo sapiens, NCI-H2052"}},
  "data": [
    {"smiles": "CC[C@H](CO)Nc1nc(NCc2ccccc2)c2ncn(C(C)C)c2n1", "note": "[seliciclib, roscovitine]", "values": [
      {"measurement": "IC50", "setting": "HT-29 [1]", "value": 12.5, "unit": "µM"},
      {"measurement": "IC50", "setting": "MCF7", "value": 9.4, "unit": "µM"},
      {"measurement": "IC50", "setting": "H292", "value": 15.4, "unit": "µM"},
      {"measurement": "Fractional Growth", "setting": "HCC-827", "value": 0.4812},
      {"measurement": "Fractional Growth", "setting": "ACHN", "value": 0.4977},
      {"measurement": "Fractional Growth", "setting": "H2869", "value": 0.5086},
      {"measurement": "Fractional Growth", "setting": "J82", "value": 0.4753},
      {"measurement": "Fractional Growth", "setting": "Panc 10.05", "value": 0.493},
      {"measurement": "Fractional Growth", "setting": "MDA-H2774", "value": 0.491},
      {"measurement": "Fractional Growth", "setting": "LCLC-97TM1", "value": 0.1711},
      {"measurement": "Fractional Growth", "setting": "FTC-133", "value": 0.393},
      {"measurement": "Fractional Growth", "setting": "NCI-H1703", "value": 0.4772},
      {"measurement": "Fractional Growth", "setting": "UMC-11", "value": 0.4912},
      {"measurement": "Fractional Growth", "setting": "HT-1197", "value": 0.5024},
      {"measurement": "Fractional Growth", "setting": "S-117", "value": 0.696},
      {"measurement": "Fractional Growth", "setting": "HT-29 [2]", "value": 0.5243},
      {"measurement": "Fractional Growth", "setting": "SW-1710", "value": 0.6764},
      {"measurement": "Fractional Growth", "setting": "COLO 853", "value": 0.154},
      {"measurement": "IC50", "setting": "MESSA", "value": 10, "unit": "µM"},
      {"measurement": "IC50", "setting": "H358", "value": 5.8, "unit": "µM"},
      {"measurement": "IC50", "setting": "A2780", "value": 6.7, "unit": "µM"},
      {"measurement": "IC50", "setting": "A549", "value": 10.5, "unit": "µM"},
      {"measurement": "IC50", "setting": "Saos-2", "value": 17, "unit": "µM"},
      {"measurement": "IC50", "setting": "cell lines of Table 3", "value": 12.3, "unit": "µM"},
      {"measurement": "IC50", "setting": "LP-1", "value": 11.7, "unit": "µM"},
      {"measurement": "IC50", "setting": "NCI-H460", "value": 12.3, "unit": "µM"},
      {"measurement": "IC50", "setting": "HCT 116", "value": 9.5, "unit": "µM"},
      {"measurement": "IC50", "setting": "H1650", "value": 21.9, "unit": "µM"},
      {"measurement": "IC50", "setting": "LoVo", "value": 17.1, "unit": "µM"},
      {"measurement": "IC50", "setting": "Colo205", "value": 13.3, "unit": "µM"},
      {"measurement": "IC50", "setting": "NCI-H929", "value": 8.1, "unit": "µM"},
      {"measurement": "IC50", "setting": "H2052", "value": 17.1, "unit": "µM"}
    ]}
  ]
}
